# According to the supplement of paper PMC12889115:
# This is one part of the list. Values are raw readings; no control value is given beside them.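 Primary screen: polymyxin B was added at a level permeabilizing Salmonella outer membranes while sparing inner membranes. DMSO wells, both with and without polymyxin B, established maximum growth. Plate-to-plate variation meant each plate was ranked on its own, and the lowest-OD600 compounds were selected as hits.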
# Test system: Salmonella enterica serovar Typhimurium SL1344
# Assay: bacterial growth OD600 after 18 h with compound and polymyxin B; higher = more bacterial growth (less inhibition)
# Conditions: 50 µM, Mueller-Hinton broth
SMILES,bacterial growth OD600 (polymyxin B 0.75 µg/mL),bacterial growth OD600 (polymyxin B 1 µg/mL)
CO[C@H]1[C@H](NC(=O)c2ccco2)c2ccccc2C12CCN(Cc1nc(C(C)C)cs1)CC2,0.791,
O=C(NCCCN1CCOCC1)c1cc(Cn2ccc3ccccc32)[nH]n1,,0.941
CC(=O)N1CCC(n2c(CCc3ccccc3)nc3cccnc32)CC1,1.05,
COc1ccc(CNC(=O)C2CCN(c3nc(C)c4ccc(S(C)(=O)=O)cc4n3)CC2)cc1,0.855,
COc1ccc2cc(C(=O)C3CCCN(Cc4cn(C)nc4C)C3)ccc2c1 (stereo not given),,0.908
COc1ccc(C(=O)C2CCCN(C(=O)c3ccc(OC(C)C)cc3)C2)cc1F (stereo not given),,0.022
Cc1nc(N2CCC(C(=O)N(C)Cc3cccc4cnccc34)CC2)nc2ccc(C(C)C)cc12,0.004,
COc1cccc(C2c3[nH]c4ccccc4c3CCN2C(=O)c2nc(C)c[nH]2)c1 (stereo not given),,0.001
CCOCCCNC(=O)C1CCCN(c2nc(C)c3ccc(S(C)(=O)=O)cc3n2)C1 (stereo not given),0.864,
Cc1cc(C)c(CNC2COc3ccccc3C2)c(-n2cccn2)c1 (stereo not given),,0.789
Cc1cnc(SCCN2CCOCC2)nc1C1CCCN(C(=O)c2ccc3cc[nH]c3c2)C1 (stereo not given),0.764,
COc1ccc(CCCN2C(=O)O[C@@H]3CN(C4CCOCC4)C[C@@H]32)cc1,,0.896
COc1ccc(CCN2CC(NC(=O)C3(C)CC3)CC2=O)cc1 (stereo not given),,0.99
CC(=O)N1CCCN(C(=O)CC(c2cccc(O)c2)c2ccccc2O)CC1 (stereo not given),,0.9
COc1ccc(-c2nn(-c3ccccc3)cc2CN2CCCCC2CO)c(F)c1 (stereo not given),,0.935
COC(=O)c1cc(CNC(=O)C23CC4CC(CC(C4)C2)C3)cc(NC(=O)Cc2ccsc2)c1,0.022,
CCc1csc(CNC(=O)C2CCC(=O)N(Cc3cccc(OC)c3)C2)n1 (stereo not given),,0.873
COCc1ccc(C(=O)NCc2c(C)ncc3c2CCN(C(=O)c2cccc(OC)c2OC)C3)o1,0.801,
O=C(NCc1cccnc1)C1CCN(C2CCN(CC3CC3)CC2)CC1,,1.03
NC(=O)c1cccnc1N1CCC2(CCCN(CCC3CCCCC3)C2=O)C1 (stereo not given),,1.14

# Reformatted tab-delimited: 2 of the compounds above.
SMILES	bacterial growth OD600 (polymyxin B 0.75 µg/mL)	bacterial growth OD600 (polymyxin B 1 µg/mL)
CC(=O)N1CCC(n2c(CCc3ccccc3)nc3cccnc32)CC1	1.05	
NC(=O)c1cccnc1N1CCC2(CCCN(CCC3CCCCC3)C2=O)C1 (stereo not given)		1.14
